# Results taken from paper PMC7819943, “Rice protein-binding microarrays: a tool to detect cis-acting elements near promoter regions in rice”.
# Amino acid sequences for entries named in this document (tags omitted).
# UniProt Q0JBA9, entry or part of it: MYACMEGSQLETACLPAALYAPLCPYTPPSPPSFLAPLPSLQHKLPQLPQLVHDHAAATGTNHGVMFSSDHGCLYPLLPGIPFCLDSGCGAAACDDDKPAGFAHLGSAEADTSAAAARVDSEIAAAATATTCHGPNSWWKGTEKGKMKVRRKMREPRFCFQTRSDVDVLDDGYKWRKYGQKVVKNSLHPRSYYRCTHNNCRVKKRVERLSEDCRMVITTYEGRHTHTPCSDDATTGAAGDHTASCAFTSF
# The list shows a part of the results.
# Target: OsWRKY34 (Oryza sativa, UniProt Q0JBA9 1-250)
# Test: protein-binding microarray (RPBM); PBS, 2% BSA, 51.3 ng/ul salmon testes DNA, 50 uM zinc acetate, 200 nM TF, 25 C, 1 h; high values mean tight binding
# Conditions: protein: recombinant; tags: N-terminal polyhistidine and DsRed monomer fusion (pET32a); label: CyDye5-dUTP incorporated in the synthesized complementary strand; 3' TTTTT single-stranded linker to array surface; dsDNA, one strand shown
# In short: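 Transcription factors, each fused N-terminally to a polyhistidine tag and DsRed, were expressed in E. coli BL21-CodonPlus and purified on Ni–NTA. A custom Agilent array was made double-stranded by primer extension with Cy5-dUTP and blocked with 2% BSA. It was incubated with 200 nM protein in PBS, 2% BSA, salmon testes DNA and 50 µM zinc acetate at 25 °C for 1 h, then washed. The binding signal is per-feature fluorescence intensity (arbitrary units) read on an Axon 4000B scanner.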
row,Sequence,binding signal
1,CACGGTGGCCCTTTGTGTGCCTGGCCATCACTCCCGACCGCGGAGTCACCTAGTGCAG,9320 fluorescence intensity (a.u.)
2,CATTTTGCCTCCCTCATCTCTTGCGTTTGTGTGCCCTCAACGGAGTCACCTAGTGCAG,9340 fluorescence intensity (a.u.)
3,GGATGCTTATATTATGTTGGTTGCAGCAAATTTGTTATAACGGAGTCACCTAGTGCAG,8030 fluorescence intensity (a.u.)
4,AAGCCATCATTAGCACATGTCGGTTACTGTAGTACTTATGCGGAGTCACCTAGTGCAG,9690 fluorescence intensity (a.u.)
5,TCTTCACATGCTATTTTGTGTTATTCTTGCCTATAAATGACGGAGTCACCTAGTGCAG,8310 fluorescence intensity (a.u.)
6,AGGTTTTGATTGAGCCAATGGGGTGGGCAGTTTTTGGTGCCGGAGTCACCTAGTGCAG,14500 fluorescence intensity (a.u.)
7,CTTTCTCCCATCCGCTGCCTGCCTCCATAGCTAGCCCACTCGGAGTCACCTAGTGCAG,8370 fluorescence intensity (a.u.)
8,AGTTACCAAATAACCAAACCCCAAGAGATACGCCGTTGACCGGAGTCACCTAGTGCAG,14800 fluorescence intensity (a.u.)
9,GTGGTGGAGGTGGTGTCGTCGACGGCATATTTAGACTTGGCGGAGTCACCTAGTGCAG,10400 fluorescence intensity (a.u.)
10,TCAGTTTTTGTTTGCAATGTTTGACCACTCGTCTTATTCACGGAGTCACCTAGTGCAG,18500 fluorescence intensity (a.u.)
11,GCCCAGCCTGCCAACCTCACATCCCGTCATCGAGATTCGCCGGAGTCACCTAGTGCAG,8720 fluorescence intensity (a.u.)
12,CCCCAAAATTTTTCACCATGTCACATCAAACGTTTGAACACGGAGTCACCTAGTGCAG,8490 fluorescence intensity (a.u.)
13,CGAGCACACACACTCACTCCCTGTCTCCTCCTCCTCCTCCCGGAGTCACCTAGTGCAG,10600 fluorescence intensity (a.u.)
14,TCTACCGGTGTTTGTGTTGCGCGTCCGTGCTCTGGGTGGTCGGAGTCACCTAGTGCAG,9060 fluorescence intensity (a.u.)
15,GCAATGTGGTTGTGGATTTTTTTGGTAGGGAGGTGAGATGCGGAGTCACCTAGTGCAG,8040 fluorescence intensity (a.u.)
16,TTGTCAATTACTGCTCCGGTGACTGTTAATTTGGATTTTCCGGAGTCACCTAGTGCAG,10700 fluorescence intensity (a.u.)
17,GCATTTTACAGGTTTTCTCGGCCACATACTGTCATAGGAACGGAGTCACCTAGTGCAG,10500 fluorescence intensity (a.u.)
18,CATATGTTTACACCCAAATTTGGCACCTAGGATTAAAATACGGAGTCACCTAGTGCAG,8350 fluorescence intensity (a.u.)
19,CTACCTCCTTTCTAAATTAGTGGTCGTTTTGACTTTCTTCCGGAGTCACCTAGTGCAG,11200 fluorescence intensity (a.u.)
20,TAGGCTATCTTTTGAAGGGAGGGGTTTTTTCATCACCTATCGGAGTCACCTAGTGCAG,17000 fluorescence intensity (a.u.)
21,TAAATTGCATCATGCCGGTGTCATTTGTTTCTTTGCTGCCCGGAGTCACCTAGTGCAG,8870 fluorescence intensity (a.u.)

# Two records picked at random from the list so far, as already listed:
row,Sequence,binding signal
6,AGGTTTTGATTGAGCCAATGGGGTGGGCAGTTTTTGGTGCCGGAGTCACCTAGTGCAG,14500 fluorescence intensity (a.u.)
4,AAGCCATCATTAGCACATGTCGGTTACTGTAGTACTTATGCGGAGTCACCTAGTGCAG,9690 fluorescence intensity (a.u.)

# Going on with the list:

row,Sequence,binding signal
1,TTGAATAAGACGAATGGTCAAACATGTGAGAAAAAGTCAACGGAGTCACCTAGTGCAG,8150 fluorescence intensity (a.u.)
2,TCATCTACTTCTCCGATCTCAATCATAACACACCTCAATCCGGAGTCACCTAGTGCAG,9140 fluorescence intensity (a.u.)
3,AACCAGCTCTGTTTGACGGTTTCCTGCCGCAGTTGCCGACCGGAGTCACCTAGTGCAG,8520 fluorescence intensity (a.u.)
4,ATCTTTGATATTGTCATGCTATCTCAATTCTCGAGTCCTCCGGAGTCACCTAGTGCAG,9280 fluorescence intensity (a.u.)
5,ATCCTTTTCTTTGGCAGTCCTTGATCCCAGATCCACATTTCGGAGTCACCTAGTGCAG,9820 fluorescence intensity (a.u.)
6,CACAACAACCACAACAACAACAAAAAGCTCTCACCTTTCACGGAGTCACCTAGTGCAG,8280 fluorescence intensity (a.u.)
7,GATAGAGTGTTTTCATTCAGTTGCTTCGAGTTTGGAAGAACGGAGTCACCTAGTGCAG,8400 fluorescence intensity (a.u.)
8,GGCGCGCAAAACAGCGACCTCCACACACCCTCGCAAACTCCGGAGTCACCTAGTGCAG,8400 fluorescence intensity (a.u.)
9,CCCTTCTTGAATATTCAGGCTTTTCACCGGATTCGGAATTCGGAGTCACCTAGTGCAG,9010 fluorescence intensity (a.u.)
10,CAGTTATTGATAGATATATACATTACGTCCCTTTTTTTAACGGAGTCACCTAGTGCAG,8400 fluorescence intensity (a.u.)
11,CCACTTTATTCTTTTCATACCAATGTCTTCTTATCTGTATCGGAGTCACCTAGTGCAG,8320 fluorescence intensity (a.u.)
12,GCTCATGCCGGTATGTCTGTTCCTGCCTCCTCCAAAATTTCGGAGTCACCTAGTGCAG,8810 fluorescence intensity (a.u.)
13,TGCATACGTCTTAACCTAACCATCTACGAAAATAGGCCTACGGAGTCACCTAGTGCAG,9490 fluorescence intensity (a.u.)
14,GATTAGCCATAAGTACTGCTACAGTAACCCACATATGCTACGGAGTCACCTAGTGCAG,8450 fluorescence intensity (a.u.)
15,TGGTATTCTTTTGGGTGTTTCAGCAAATACTATATTTTTTCGGAGTCACCTAGTGCAG,8640 fluorescence intensity (a.u.)
16,TCTAAAGTGTTTCATTCATTTCTATGTTTGTTTTTTATGGCGGAGTCACCTAGTGCAG,9260 fluorescence intensity (a.u.)
17,ATCCCCACGCTTCCATTCCATCCATCTCTCTCGCTCTCTCCGGAGTCACCTAGTGCAG,8770 fluorescence intensity (a.u.)
18,CCTTCTTGGGGAATGCTTTTCTATGTGGGTTTCCTTTACACGGAGTCACCTAGTGCAG,10400 fluorescence intensity (a.u.)
19,ATACTTTCTCTATTTTTAAATACTTATACCGTTCACTTCTCGGAGTCACCTAGTGCAG,10100 fluorescence intensity (a.u.)
20,CCTCGTCCTCCGCCATCGACCATGACCGTGCTTCGTCATGCGGAGTCACCTAGTGCAG,9770 fluorescence intensity (a.u.)
21,CGAACCTCGACGCCTGCATCCGCATCCGCCTCCGCCTCCGCGGAGTCACCTAGTGCAG,8050 fluorescence intensity (a.u.)
